# Among all 300,000 compounds or so, about 3,700 (1.2%) were called active. The inconclusive results got no clear call from the source; some entries with a clear call stand among them for comparison. Calls come from the whole dose curve; tested in HEK293 cells. Where the call is inconclusive, the potency comes from a doubtful curve fit.
# Assay: qHTS for Inhibitors of binding or entry into cells for Lassa Virus; note: nearly all actives have a fitted effect of over 50% in size
# Settings: Lassa virus pseudotype entry inhibition, cell reporter; series mostly up to 37.9 µM
# Potency is the fitted concentration of half-maximal effect.
row,Compound,Potency
1,Cc1ccccc1CS(=O)(=O)Cc1ccc(C(=O)NCCc2ccc(Cl)cc2)o1,"inconclusive: 15.8 µM [inhibitor, single point]"
2,CCOC(=O)/C=C/COc1ccccc1[N+](=O)[O-],inactive
3,CC(C)CCn1c(=O)c2c(nc3n2CCCN3Cc2ccccc2)n(C)c1=O,"inconclusive: 1 µM [inhibitor, full curve, poor fit]"
4,COc1ccc(CNC(=O)N2CCc3ccccc3C2)cc1,"inconclusive: 7.94 µM [inhibitor, partial curve, poor fit]"
5,C/C(=N\NC(=O)c1ccc(Br)cc1)c1cccnc1,inactive
6,CCN(CC)c1ccc(/C=N/n2c(-c3ccccc3Br)n[nH]c2=S)cc1,"inconclusive: 15.8 µM [inhibitor, partial curve, poor fit]"
7,COc1cccc(-c2csc(N3CCN(S(=O)(=O)c4ccc(F)cc4)CC3)n2)c1,"inconclusive: 29.1 µM [inhibitor, single point]"
8,CCN(CC(=O)Nc1c(F)cccc1F)C(=O)c1ccc(N2CCCCC2)c([N+](=O)[O-])c1,active: 7.08 µM
9,CCn1c(SCC(=O)N/N=C/c2ccc(C)o2)nnc1-c1ccc(C(C)(C)C)cc1,"inconclusive: 20 µM [inhibitor, partial curve, poor fit]"
10,O=C(CNCc1ccccc1)Nc1cccc(Cl)c1Cl,"inconclusive: 35.5 µM [inhibitor, single point]"
11,COc1cc(CNC(=O)c2ccc3nc(Cc4ccccc4)oc3c2)cc(OC)c1OC,"inconclusive: 7.08 µM [inhibitor, full curve]"
12,COc1ccc(N2C(=O)CSC23C(=O)N2c4c(cccc43)C(C)=CC2(C)C)cc1 (configuration not stated),"inconclusive: 1.64 µM [inhibitor, partial curve, poor fit]"
13,O=c1[nH]cnc2scc(-c3ccccc3)c12,inactive
14,Cn1cc(S(=O)(=O)NC2CCCCC2)c(=O)n(C)c1=O,inactive
15,Cc1cc(C)n(CCNc2nc3nonc3nc2N2CCCCC2)n1,"inconclusive: 12.6 µM [inhibitor, single point]"
16,COc1cc(C(=O)OCC(=O)NC(=O)NCc2ccccc2)ccc1OC(F)F,inactive
17,COc1ccc(-c2cc3nc(-c4ccccc4)cc(N4CCC(O)CC4)n3n2)cc1,"inconclusive: 35.5 µM [inhibitor, single point]"
18,COc1ccc(OC)c(C2CC(=O)c3c([nH]c(C(=O)OCc4ccc(C)cc4)c3C)C2)c1 (configuration not stated),inactive
19,COP(=O)(OC)c1nc(-c2cccc3ccccc23)oc1N1CCOCC1,"inconclusive: 25.1 µM [inhibitor, single point]"
20,Cc1ccc(OC(=O)CCC(=O)Oc2ccc(C)cc2C)c(C)c1,inactive
21,Cc1ccccc1OCCn1cc(C(=O)c2ccco2)c2ccccc21,inactive
22,Cc1ccccc1NC(=O)c1cccc(Cn2cc(Br)c([N+](=O)[O-])n2)c1,"inconclusive: 0.184 µM [inhibitor, full curve, poor fit]"
23,COc1ccc2sc(N(CCCN(C)C)C(=O)c3nc4ccccc4s3)nc2c1,inactive

row,Compound,Potency
1,CC(=O)O[C@H]1CCC2C3CCC4=CC(=O)CCC4=C3C=C[C@@]21C (some centres not stated),inactive
2,Cc1cn(C)c(CC(=O)Nc2cccc(C#N)c2)c1C(=O)O,inactive
3,O=C(c1cccc([N+](=O)[O-])c1)c1cc2ccccc2o1,"inconclusive: 1.12 µM [inhibitor, single point]"
4,O=C1N/C(=N\N=C\c2cccnc2)SC1Cc1ccc(SC(F)F)cc1 (configuration not stated),"inconclusive: 18.3 µM [inhibitor, single point]"
5,COc1ccc(-c2cc3nc(C)c(CCC(=O)NCCc4ccc(Cl)cc4)c(C)n3n2)c(OC)c1,"inconclusive: 35.5 µM [inhibitor, single point]"
6,Cc1cc(Cl)ccc1OC(C)C(=O)Nc1ccccc1N1CCOCC1 (configuration not stated),"inconclusive: 11.2 µM [inhibitor, partial curve, poor fit]"
7,Fc1ccc2[nH]c3c(N4CCSCC4)ncnc3c2c1,"inconclusive: 12.6 µM [inhibitor, partial curve, poor fit]"
8,COc1ccc(C(=O)NCc2nnc(SCC(=O)N3CCCC3)o2)cc1OC,inactive
9,Cc1ccc2c(CN(C)Cc3cccc(Cl)c3)cc(=O)oc2c1C,"inconclusive: 17.8 µM [inhibitor, single point]"
10,Cc1ccccc1NC(=O)COc1ccc2oc3c(c2c1)CCCC3,inactive
11,CCOC(=O)c1c(C)[nH]c(C(=O)OCC(O)=C(C#N)c2nc3ccccc3[nH]2)c1C,"inconclusive: 17.8 µM [activator, single point]"
12,Cc1ccc(S(=O)(=O)c2nnn3c2nc(NCCCN2CCCC2=O)c2ccccc23)cc1C,"inconclusive: 35.5 µM [inhibitor, single point]"
13,Cc1ccc2cc(COC(=O)c3ccco3)c(=O)[nH]c2c1,inactive
14,CC(C)Cn1c(N)c(C(=O)COC(=O)c2ccc3c(c2)OCCO3)c(=O)n(C)c1=O,"inconclusive: 14.6 µM [inhibitor, partial curve, poor fit]"
15,Brc1cc2c(cc1Br)OCCOCCOCCOCCO2,inactive
16,CCOC(=O)/C=C1\SCC(=O)N1CC(=O)NC(c1ccccc1)c1ccccc1,inactive
17,CCOC(=O)c1c(C)[nH]c(C(=O)COC(=O)C2CC2C)c1C (configuration not stated),"inconclusive: 35.5 µM [inhibitor, single point]"
18,COc1cc(C(=O)Oc2cccc(/C=N/NC(=O)c3cc(C)[nH]n3)c2)cc(OC)c1OC,"inconclusive: 11.2 µM [inhibitor, partial curve, poor fit]"
19,CC(C)c1ccc(/C=C2\SC(N3CCCC3)=NC2=O)cc1,"inconclusive: 11.2 µM [inhibitor, partial curve]"
20,Cc1cc(C)nc(N/N=C/c2c(CO)cnc(C)c2O)n1,inactive
21,COc1ccc2c(COC(=O)[C@H](C)NS(=O)(=O)c3ccccc3F)cc(=O)oc2c1,"inconclusive: 15.8 µM [activator, single point]"
22,O=C(OCc1cn([C@@H]2C[C@H](c3ccc(Cl)cc3)N(Cc3cccs3)C[C@@H]2O)nn1)c1ccccc1,"inconclusive: 1.77 µM [inhibitor, partial curve, poor fit]"
23,COc1ccc(-n2nc(C(=O)NCC(=O)N3CCN(c4ccccc4F)CC3)c3ccccc3c2=O)cc1,"inconclusive: 6.31 µM [inhibitor, full curve, poor fit]"

# Arranged by heavy-atom count (ascending): some entries from above.
row,Compound,Potency
3,O=C(c1cccc([N+](=O)[O-])c1)c1cc2ccccc2o1,"inconclusive: 1.12 µM [inhibitor, single point]"
12,Cc1ccc(S(=O)(=O)c2nnn3c2nc(NCCCN2CCCC2=O)c2ccccc23)cc1C,"inconclusive: 35.5 µM [inhibitor, single point]"
22,O=C(OCc1cn([C@@H]2C[C@H](c3ccc(Cl)cc3)N(Cc3cccs3)C[C@@H]2O)nn1)c1ccccc1,"inconclusive: 1.77 µM [inhibitor, partial curve, poor fit]"
23,COc1ccc(-n2nc(C(=O)NCC(=O)N3CCN(c4ccccc4F)CC3)c3ccccc3c2=O)cc1,"inconclusive: 6.31 µM [inhibitor, full curve, poor fit]"

# Following part.

row,Compound,Potency
1,CCN(CC)S(=O)(=O)c1ccc(C)c(NC(=O)CSc2ncc(C(F)(F)F)cc2Cl)c1,"inconclusive: 20 µM [inhibitor, partial curve, poor fit]"
2,CCOc1ccc(C(=O)/C=C/c2cn(CC(O)CN3CCc4ccccc43)c3ccccc23)cc1 (configuration not stated),"inconclusive: 35.5 µM [inhibitor, single point]"
3,Cc1cc(NC(=O)CC(F)(F)F)n(-c2ccccc2)n1,"inconclusive: 11.2 µM [activator, partial curve]"
4,Cn1c(=NC(=O)C2CCCCC2)sc2cc([N+](=O)[O-])ccc21,"inconclusive: 7.08 µM [activator, full curve, poor fit]"
5,Cc1cc(C)cc(N2C(=O)N(Cc3cc(=O)n4ccccc4n3)c3ccccc3S2(=O)=O)c1,"inconclusive: 8.91 µM [inhibitor, single point]"
6,CC1(C)NC(=O)N(CCCCOc2ccc(Cl)cc2)C1=O,inactive
7,O=C(CCn1c(=O)c2ccccc2n(Cc2cccc(F)c2)c1=O)NCc1ccc2c(c1)OCO2,inactive
8,COCCn1c(C)cc(C(=O)COC(=O)c2ccc(Br)o2)c1C,"inconclusive: 0.891 µM [activator, single point]"
9,O=C(C/C=N\OCc1ccc([N+](=O)[O-])cc1)Nc1ccc(F)cc1F,inactive
10,O=c1[nH]cc(NCc2ccccc2)c(=O)[nH]1,"inconclusive: 0.501 µM [inhibitor, partial curve, poor fit]"
11,CCOc1ccc(CN2CCN(Cc3ccc4c(c3)c3ccccc3n4CC)CC2)cc1,"inconclusive: 11.2 µM [inhibitor, partial curve, poor fit]"
12,CCOC(=O)CN1C(=O)C2(CC(C)=C[C@@H](C)O2)c2c(Br)cccc21 (some centres not stated),"inconclusive: 0.0841 µM [activator, full curve, poor fit]"
13,O=C(Nc1ccc(Oc2cccnc2)cc1)C1CCN(Cc2ccc(F)cc2)CC1,"inconclusive: 20 µM [inhibitor, partial curve, poor fit]"
14,CCN(c1ccccc1C)S(=O)(=O)c1nnc(NC(=O)c2ccccc2C)s1,"inconclusive: 17.8 µM [activator, single point]"
15,Cc1ccc(NC(=O)c2c(-c3ccccc3Cl)noc2C)nc1,inactive
16,CCCN(CCC)c1nc(-c2ccccn2)nc2ccccc12,"inconclusive: 7.08 µM [inhibitor, partial curve, poor fit]"
17,CC(C)Oc1ccc(CNC(=O)c2ccc3c(c2)nc2n3CCOC2)cc1,inactive
18,COc1cc2c(cc1OC)CN(C(=O)CN(C)S(=O)(=O)c1ccc(NC(C)=O)cc1)CC2,"inconclusive: 11.2 µM [activator, partial curve]"
19,CCCCc1ccc(S(=O)(=O)NCCc2ccncc2)cc1,"inconclusive: 35.5 µM [inhibitor, single point]"
20,O[C@H]1CN(CC2CCCCC2)[C@@H](c2ccc(Cl)cc2)C[C@H]1n1cc(C2CC2)nn1,active: 9.95 µM
21,CCOC(=O)N(C)c1ccc(C(O)(C(=O)OCC)C(F)(F)F)cc1 (configuration not stated),"inconclusive: 9.2 µM [inhibitor, partial curve]"

# Reference: PubChem BioAssay AID540256 (National Center for Advancing Translational Sciences (NCATS), 2011)
